Test results reported in PubChem BioAssay (EPA / NIEHS).
Where “and” joins values, the source holds several entries; their conditions need not be identical. Equal entries are not always repeated. The inconclusive results got no clear call from the source; some entries with a clear call stand among them for comparison. Potencies of inconclusive entries are doubtful fits and often do not repeat. Calls of active or inactive are those of the source. Rule for the calls: active = hit-call score of the fitted dose curve at least 0.9, where 1 is the maximum; inconclusive = response in the unintended direction; inactive = score below 0.9.

Protein sequences, listed by entry. Tags and fused reporters are not part of them. Lines headed by an entry give the natural chain unless they say otherwise; changes in a name come on top.
UniProt Q9Y233: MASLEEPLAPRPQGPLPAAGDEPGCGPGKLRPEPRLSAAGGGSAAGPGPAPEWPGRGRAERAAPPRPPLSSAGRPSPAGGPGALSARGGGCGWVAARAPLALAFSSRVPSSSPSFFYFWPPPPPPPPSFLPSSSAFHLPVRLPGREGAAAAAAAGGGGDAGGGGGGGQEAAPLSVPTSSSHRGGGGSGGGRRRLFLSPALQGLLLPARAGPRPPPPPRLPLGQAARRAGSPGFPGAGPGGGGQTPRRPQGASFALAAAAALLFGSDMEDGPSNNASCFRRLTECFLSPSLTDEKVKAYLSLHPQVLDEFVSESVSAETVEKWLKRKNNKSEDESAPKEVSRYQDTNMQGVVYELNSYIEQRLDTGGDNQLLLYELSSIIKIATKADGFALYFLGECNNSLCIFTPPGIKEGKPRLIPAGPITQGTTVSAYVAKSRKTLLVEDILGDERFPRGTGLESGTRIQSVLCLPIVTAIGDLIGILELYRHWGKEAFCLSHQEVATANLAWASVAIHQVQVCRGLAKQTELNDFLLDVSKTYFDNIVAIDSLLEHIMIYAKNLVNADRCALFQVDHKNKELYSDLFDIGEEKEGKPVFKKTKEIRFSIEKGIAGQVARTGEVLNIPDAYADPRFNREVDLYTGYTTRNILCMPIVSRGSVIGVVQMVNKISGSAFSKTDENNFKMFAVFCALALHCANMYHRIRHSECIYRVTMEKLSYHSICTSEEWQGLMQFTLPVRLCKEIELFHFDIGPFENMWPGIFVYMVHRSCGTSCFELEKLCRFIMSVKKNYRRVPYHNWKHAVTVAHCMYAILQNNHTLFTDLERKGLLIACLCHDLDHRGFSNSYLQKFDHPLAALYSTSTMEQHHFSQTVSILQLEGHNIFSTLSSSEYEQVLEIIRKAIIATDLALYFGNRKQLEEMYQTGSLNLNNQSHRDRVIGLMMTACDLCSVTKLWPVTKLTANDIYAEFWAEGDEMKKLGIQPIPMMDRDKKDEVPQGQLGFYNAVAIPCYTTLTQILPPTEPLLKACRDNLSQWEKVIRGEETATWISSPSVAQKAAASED

These molecules were tested against human Phosphodiesterase 10 (PDE10), PDE10A (gene 10846) (UniProt Q9Y233) (assay: NVS_ENZ_hPDE10: NovaScreen (NVS) Enzymatic Assay for human Phosphodiesterase 10 (PDE10) (AID 2283195)).
Experimental: NVS_ENZ_hPDE10 is a biochemical, single-readout assay that uses extracted gene-proteins in a cell-free assay. Measurements were taken 1 hour after chemical dosing in a 384-well plate.NVS_ENZ_hPDE10 is one of one assay component(s) measured or calculated from the NVS_ENZ_hPDE10 assay. It is designed to make measurements of enzyme activity, a form of enzyme reporter, as detected with fluorescence intensity signals by Fluorescence and electrophoretic mobility shift technology.Data from the assay component NVS_ENZ_hPDE10 was analyzed into 1 assay endpoint. This assay endpoint, NVS_ENZ_hPDE10, was analyzed in the positive analysis fitting direction relative to DMSO as the negative control and baseline of activity. Using a type of enzyme reporter, loss-of-signal activity can be used to understand changes in the enzymatic activity as they relate to the gene PDE10A. Furthermore, this assay endpoint can be referred to as a primary readout, because this assay has produced multiple assay endpoints where this one serves a enzymatic activity function. To generalize the intended target to other relatable targets, this assay endpoint is annotated to the esterase intended target family, where the subfamily is phosphodiesterase.
Binding assays used specific radioligands (tritiated, iodinated) with non-radioactive competitive displacement ligands in agonist or antagonist protocols (as indicated) and various reference compounds and inhibitors to titrate specific binding to receptors and transporters. Most enzyme assays (CYPs, kinases, phosphatases, proteases, HDACs) used recombinant protein and specific substrates (fluorescence mostly, some colorimetric and radioactive) and inhibitors, followed by a biochemical separation of substrate and product. All assays for the biochemical HTS were initially run in duplicate at a single concentration (10 uM for CYP450 assays and 25 uM for all others). Assay-chemical combinations meeting a pre-defined threshold (e.g., 30% inhibition and other criteria defined below) were then run in singleton concentration-response format with maximum concentration of 20 uM for CYPs and 50 uM for all others. Each assay was run with positive and negative controls, and concurrent controls on every plate. The follow-up (secondary) screen tested active chemical-pairs in concentration series, as well as a few additional assays not tested in the primary screen, some selected negative inactives, and several cases re-run in the concentration series for confirmatory purposes.

| Compound | AC50 | outcome |
| --- | --- | --- |
| CC(=O)Nc1ccc(C(=O)CCl)cc1 | inconclusive: 0.385 µM |  |
| Oc1ccc(C(c2ccc(O)cc2)C(Cl)(Cl)Cl)cc1 | inconclusive: 0.232 µM |  |
| Cn1c(=O)c2c(ncn2C)n(C)c1=O | active: 25 µM |  |
| CCCC(CCC)C(=O)O | inconclusive: 25 µM |  |
| CCCCCCCOC(=O)c1ccccc1C(=O)OCCCCCCC | inconclusive: 5.13 µM |  |
| CCCCCCCCCCCCCc1ccccc1 | inconclusive: 0.747 µM |  |
| CO[Si](OC)(c1ccccc1)c1ccccc1 |  | inactive |
| COc1ccc(OC)c(N=Nc2c(O)ccc3ccccc23)c1 | active: 42.3 µM |  |
| S=C(S)NCCNC(=S)S.[Mn+2].[S-]C([S-])=NCCN=C([S-])[S-].[Zn+2] | active: 2.41 µM and active: 17.6 µM |  |
| CN(C)C(=O)NC1(c2ccccc2)CCN(CC[C@@]2(c3ccc(F)c(F)c3)CN(C(=O)c3ccccc3)CCO2)CC1 | inconclusive: 23.5 µM |  |
| Nc1cccc(N)n1 | inconclusive: 1.97 µM |  |
| CC/C(=C(/CC)c1ccc(O)cc1)c1ccc(O)cc1 | inconclusive: 4.8 µM |  |
| O=C(O)CC(O)C(=O)O (stereo not drawn) |  | inactive |
| CC(=O)Nc1ccc(N=Nc2cc(C)ccc2O)cc1 |  | inactive |
| CCCCCCCCCCCCOS(=O)(=O)O | active: 25 µM |  |
| CNS(=O)(=O)c1cc(C(=O)N2CCC(CCN3C4CCC3CC(n3c(C)nc5ccccc53)C4)(c3cccc(F)c3)CC2)c(Cl)cc1F (stereo not drawn) | inconclusive: 5.94 µM |  |
| CCCCCCCC/C=C\CCCCCCCC(=O)OC[C@@H](O)[C@H]1OC[C@H](O)[C@H]1O | inconclusive: 0.41 µM |  |
| CC=C(C)C(C)=O | inconclusive: 46 µM |  |
| CC(C)[C@@H]1CC[C@@H](C)CC1=O | inconclusive: 0.0611 µM |  |

| Compound | AC50 | outcome |
| --- | --- | --- |
| COC(C)(C)CC(C)=O | inconclusive: 43.3 µM |  |
| O=C1CCCCCCCCCCC1 |  | inactive |
| CCOCCOCC | inconclusive: 0.159 µM |  |
| CCN(CC)c1cccc(C)c1 |  | inactive |
| c1ccc2cc(Nc3ccc(Nc4ccc5ccccc5c4)cc3)ccc2c1 | inconclusive: 0.172 µM |  |
| CC(C)[N+](C)(CCOC(=O)C1c2ccccc2Oc2ccccc21)C(C)C | inconclusive: 0.124 µM |  |
| CC(C)NCC(O)c1ccc(O)c(O)c1 (stereo not drawn) | inconclusive: 0.11 µM |  |
| O=C1c2ccccc2C(=O)c2c(O)ccc(O)c21 | inconclusive: 5.97 µM |  |
| CCCCSCCCC | active: 1 µM |  |
| C[N+](C)(C)CC(=O)[O-] |  | inactive |
| CCCCOC(=O)CCCCC(=O)OCCCC |  | inactive |
| CCCCC(CC)COCCC#N (stereo not drawn) |  | inactive |
| CC1(C)[C@H](C=C(Cl)Cl)[C@H]1C(=O)OCc1cccc(Oc2ccccc2)c1 | active: 25 µM |  |
| CC1=C(O)C(=O)C(C)O1 (stereo not drawn) | inconclusive: 25.5 µM |  |
| O=[N+]([O-])c1cc(C(F)(F)F)ccc1Cl | active: 35 µM |  |
| OCCCO | active: 16.1 µM |  |
| COc1cc2ncnc(Nc3cccc(Cl)c3)c2cc1OC | active: 2.52 µM |  |
| O=c1c2ccccc2oc2ccccc12 | inconclusive: 0.434 µM |  |
| NCCO | inconclusive: 0.141 µM |  |

2 records picked at random from the list so far, as already listed:

| Compound | AC50 | outcome |
| --- | --- | --- |
| C[N+](C)(C)CC(=O)[O-] |  | inactive |
| CCCCCCCC/C=C\CCCCCCCC(=O)OC[C@@H](O)[C@H]1OC[C@H](O)[C@H]1O | inconclusive: 0.41 µM |  |
